The test addresses TMPRSS2-Flag (wild type transmembrane protease serine 2) (UniProt O15393). Description: co-IP.

By UniProt entry, the sequences of proteins in these tests, tags left out. Where a name states a change or a piece, a line headed by the entry shows the natural chain unless it says otherwise.
UniProt O15393: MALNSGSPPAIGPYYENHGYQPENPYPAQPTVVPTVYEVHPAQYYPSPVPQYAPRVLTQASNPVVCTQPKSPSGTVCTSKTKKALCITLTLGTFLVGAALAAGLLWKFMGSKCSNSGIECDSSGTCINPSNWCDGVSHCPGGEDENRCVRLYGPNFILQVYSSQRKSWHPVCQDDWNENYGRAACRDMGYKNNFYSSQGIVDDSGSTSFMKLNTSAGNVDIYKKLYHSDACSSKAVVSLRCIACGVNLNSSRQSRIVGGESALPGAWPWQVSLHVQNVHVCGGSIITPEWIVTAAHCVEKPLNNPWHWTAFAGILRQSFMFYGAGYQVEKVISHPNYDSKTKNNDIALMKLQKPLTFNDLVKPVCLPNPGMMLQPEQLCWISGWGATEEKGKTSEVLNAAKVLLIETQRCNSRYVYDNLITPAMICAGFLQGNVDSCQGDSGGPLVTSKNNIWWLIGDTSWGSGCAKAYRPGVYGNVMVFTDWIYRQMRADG
UniProt P00519: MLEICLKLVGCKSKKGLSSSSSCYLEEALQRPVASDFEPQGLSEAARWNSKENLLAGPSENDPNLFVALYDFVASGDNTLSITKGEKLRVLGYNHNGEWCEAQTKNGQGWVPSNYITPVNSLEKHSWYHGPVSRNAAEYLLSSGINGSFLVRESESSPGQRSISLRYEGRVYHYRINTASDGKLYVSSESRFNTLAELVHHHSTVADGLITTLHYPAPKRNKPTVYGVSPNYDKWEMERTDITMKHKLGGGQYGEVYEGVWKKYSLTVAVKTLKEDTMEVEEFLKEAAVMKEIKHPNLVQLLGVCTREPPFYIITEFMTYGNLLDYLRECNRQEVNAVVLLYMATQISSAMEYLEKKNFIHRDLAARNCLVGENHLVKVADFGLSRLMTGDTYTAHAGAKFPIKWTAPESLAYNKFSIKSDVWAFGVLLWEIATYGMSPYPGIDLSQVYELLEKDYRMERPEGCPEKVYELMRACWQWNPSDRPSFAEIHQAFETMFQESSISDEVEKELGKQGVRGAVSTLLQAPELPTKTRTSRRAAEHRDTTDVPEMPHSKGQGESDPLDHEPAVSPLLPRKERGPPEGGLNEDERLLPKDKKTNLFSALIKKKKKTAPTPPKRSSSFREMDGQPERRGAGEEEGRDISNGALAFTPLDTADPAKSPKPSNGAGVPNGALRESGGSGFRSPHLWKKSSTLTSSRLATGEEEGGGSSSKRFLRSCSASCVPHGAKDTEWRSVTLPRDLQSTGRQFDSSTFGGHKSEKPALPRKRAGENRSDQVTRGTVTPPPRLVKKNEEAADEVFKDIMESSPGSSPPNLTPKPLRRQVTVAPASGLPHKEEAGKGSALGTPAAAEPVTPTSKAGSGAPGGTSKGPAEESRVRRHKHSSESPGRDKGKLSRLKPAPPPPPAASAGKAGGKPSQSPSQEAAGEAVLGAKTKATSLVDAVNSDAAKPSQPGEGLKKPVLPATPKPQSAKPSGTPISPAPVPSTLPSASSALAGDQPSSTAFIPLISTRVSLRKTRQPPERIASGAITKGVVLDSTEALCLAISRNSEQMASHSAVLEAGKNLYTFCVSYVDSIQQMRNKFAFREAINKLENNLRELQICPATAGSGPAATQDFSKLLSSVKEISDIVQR

Results are given in words; binding and its absence hold for the method and conditions named. In cells and extracts the contact can be indirect. A result given as binding can be weak or reduced; the word gives no strength.

As to “Δ81Abl1 (constitutively active Abl1 lacking the first 81 aa) (from UniProt P00519) (enzyme)”, the binding entry was “binds”.

For the origin of these results see publication PMC10612036.
